Test results taken from PubChem BioAssay AID1671190 (National Center for Advancing Translational Sciences (NCATS), 2021).
Hit rate of the full screen: of about 580,000 compounds, about 6,100 (1.1%) were called active. This list was built around the results that the source calls inconclusive (neither active nor inactive); the mix of calls is not that of the screen. Calls follow the shape of the dose curve; as a rule, active = well fitted inhibition curve with a large enough effect; inconclusive = small, poorly fitted or top-dose-only effect, or another doubt; inactive = no such curve, though single readings can be large or run the other way. A potency beside an inconclusive call is a rough fit, not a confirmed value.

Amino acid sequences for entries named in this document (tags omitted).
UniProt P18054, whole entry, looked up: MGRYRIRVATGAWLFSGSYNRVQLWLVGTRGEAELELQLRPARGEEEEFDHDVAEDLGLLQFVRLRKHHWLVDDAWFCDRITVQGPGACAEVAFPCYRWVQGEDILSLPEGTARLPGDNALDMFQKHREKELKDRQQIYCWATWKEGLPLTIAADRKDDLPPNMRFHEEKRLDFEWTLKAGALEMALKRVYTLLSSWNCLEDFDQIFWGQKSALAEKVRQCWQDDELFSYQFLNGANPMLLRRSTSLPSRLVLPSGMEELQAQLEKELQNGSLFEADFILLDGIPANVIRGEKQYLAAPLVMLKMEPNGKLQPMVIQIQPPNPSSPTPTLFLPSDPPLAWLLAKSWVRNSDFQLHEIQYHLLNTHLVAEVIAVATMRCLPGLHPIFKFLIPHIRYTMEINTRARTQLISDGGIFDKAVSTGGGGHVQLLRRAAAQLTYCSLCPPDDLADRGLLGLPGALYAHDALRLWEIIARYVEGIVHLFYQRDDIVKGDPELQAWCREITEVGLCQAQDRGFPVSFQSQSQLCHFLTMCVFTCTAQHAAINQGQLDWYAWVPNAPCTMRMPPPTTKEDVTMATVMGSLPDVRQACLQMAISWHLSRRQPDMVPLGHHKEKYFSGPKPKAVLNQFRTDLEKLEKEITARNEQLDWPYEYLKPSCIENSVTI

Target: Polyunsaturated fatty acid lipoxygenase ALOX12 (Homo sapiens) (UniProt P18054)
Assay: Primary qHTS assay for inhibitors of human arachidonate 12S-lipoxygenase (ALOX12): Round 2
Conditions: purified 12hLO, xylenol orange hydroperoxide absorbance; activity change, negative = inhibition: at 108 µM (top of the series) unless noted
Procedure, shortened: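 Purified human 12hLO at 150 nM in 25 mM Hepes, 0.01% Triton X-100, pH 7.0, preincubated 15 min at room temperature with compound. Reaction started with 40 uM arachidonic acid, 30 min at room temperature. Hydroperoxide measured by Fe-xylenol orange, 573/405 nm absorbance ratio.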
% is scaled to controls: 0 for no effect and ±100 for the full control effect; potency is read from the fitted curve at half-maximal effect.

Row | Structure (SMILES) | Potency | activity change, negative = inhibition
1 | CCOc1ccccc1NC(=O)N1CCC(NC(=O)c2cccc(C)c2)CC1 | inconclusive: 44.7 µM [inhibitor, partial curve, poor fit] | 
2 | N#Cc1sc(=O)[nH]c1Cl | inconclusive: 28.2 µM [inhibitor, partial curve, poor fit] | 
3 | CCCCNS(=O)(=O)c1ccc(C)c(-c2nnc3c4ccccc4c(C)nn23)c1 | inactive | 
4 | Cc1ccc(CN2CCN(C3CCN(C(=O)Nc4ccc(C)cc4Cl)CC3)C(=O)C2=O)cc1 | inconclusive: 56.2 µM [inhibitor, partial curve, poor fit] | 
5 | COc1cccc(CCC(=O)N2CCC3(CC2)NC(=O)N(c2ccccc2)N3)c1 | active: 2.51 µM | 
6 | CCCCCCNC(=S)Nc1cccc(Cl)c1 | inconclusive: 50.1 µM [inhibitor, single point] | 
7 | CCc1ccc(NS(=O)(=O)c2ccc3c(c2)c(=O)n(CC(=O)N2CCCCCC2)c(=O)n3C)cc1 | inactive | 
8 | CCCC[C@@H]1CN=C(N)N1CCCC | inconclusive: 126 µM [inhibitor, single point] | 
9 | CC(C)CN1C(=O)C(C)(C)[S+](=O)([O-])[C@H]2CN(c3ccc(Oc4ccccc4)cc3)C[C@@H]21 | inconclusive: 22.4 µM [inhibitor, full curve, poor fit] | 
10 | CCN(Cc1ccccc1)C(=O)C1CCN(Cc2ccc(SC)cc2)CC1 | inconclusive: 10 µM [inhibitor, full curve] | 
11 | CC(C)(C)OC(=O)N(CCc1ccccc1)Cc1ccccc1OCc1cccc(NC(=O)C2CCC2)c1 | inconclusive: 10 µM [inhibitor, partial curve, poor fit] | 
12 | Cc1cc(C)cc(OCC(=O)N2N=C(c3cccnc3)CC2(O)C(F)(F)F)c1 (stereo not given) | inactive | 
13 | COc1ccc2cc(C(c3nnnn3Cc3ccccc3)N3CCCCCC3)c(=O)[nH]c2c1 (stereo not given) | inconclusive: 3.16 µM [inhibitor, full curve, poor fit] | 
14 | CCNc1ccc(C(=O)OCC(=O)NC(C)c2ccccc2)cc1[N+](=O)[O-] (stereo not given) | inconclusive: 4.47 µM [inhibitor, full curve, poor fit] | 
15 | COc1cc(C(=O)Nc2cccc3cccnc23)cc(OC)c1OC | inconclusive: 28.2 µM [inhibitor, partial curve, poor fit] | 
16 | COc1cc(NS(=O)(=O)c2cccc(Cl)c2Cl)c(C(=O)O)cc1OC | inconclusive: 50.1 µM [inhibitor, single point] | 
17 | O=C(Nc1cccc(Cl)c1)N1CCN(Cc2nc(-c3cccc(C(F)(F)F)c3)no2)CC1 | inconclusive: 56.2 µM [inhibitor, partial curve, poor fit] | 
18 | Cc1ccn2c(CC(C)(C)C)c(-c3ccc(F)cc3)nc2c1 | inconclusive: 35.5 µM [inhibitor, partial curve, poor fit] | 
19 | COc1cccc(N2C(=O)NC(=NC3CCCC3)C23CCN(Cc2ccc(F)cc2)C3)c1 (stereo not given) |  | inactive: 2.44% [at 6.33 µM]
20 | CN1CCCC(CN2c3ccccc3Sc3ccccc32)C1 (stereo not given) | inconclusive: 39.8 µM [inhibitor, partial curve, poor fit] | 
21 | [O-]/[N+](=N\Nc1ccc(Cl)cc1)c1ccccc1 | inconclusive: 56.2 µM [inhibitor, partial curve, poor fit] | 
22 | COc1ccc(C(=O)N2CCc3nc(C4CC4)nc(-c4ccc(Cl)cc4)c3C2)cc1 | inconclusive: 12.6 µM [inhibitor, full curve, poor fit] | 

Four entries from above, in CSV form.
Row,Structure (SMILES),Potency,"activity change, negative = inhibition"
1,CCOc1ccccc1NC(=O)N1CCC(NC(=O)c2cccc(C)c2)CC1,"inconclusive: 44.7 µM [inhibitor, partial curve, poor fit]",
7,CCc1ccc(NS(=O)(=O)c2ccc3c(c2)c(=O)n(CC(=O)N2CCCCCC2)c(=O)n3C)cc1,inactive,
17,O=C(Nc1cccc(Cl)c1)N1CCN(Cc2nc(-c3cccc(C(F)(F)F)c3)no2)CC1,"inconclusive: 56.2 µM [inhibitor, partial curve, poor fit]",
20,CN1CCCC(CN2c3ccccc3Sc3ccccc32)C1 (stereo not given),"inconclusive: 39.8 µM [inhibitor, partial curve, poor fit]",

(continued)

Row | Structure (SMILES) | Potency | activity change, negative = inhibition
23 | O=C(Nc1ccc2ncnc(N3CCCCC3)c2c1)c1ccc(F)cc1 | inactive | 
24 | COc1ccc(-n2c(-c3ccc(Cl)cc3Cl)n[nH]c2=S)c(OC)c1 | inconclusive: 35.5 µM [inhibitor, single point] | 
25 | CC1(OC(=O)c2cccs2)C(=O)C=C2C=C(C3CC3)OC=C2C1=O (stereo not given) | inconclusive: 44.7 µM [inhibitor, partial curve, poor fit] | 
26 | O=C(CN1C(=O)NC2(CCCCCCC2)C1=O)Nc1ccc(Br)cc1Br | inconclusive: 17.8 µM [inhibitor, partial curve, poor fit] | 
27 | COc1ccc(-c2nnn(CC(=O)N(Cc3ccccc3Cl)C(C(=O)NCC3CCCO3)c3ccco3)n2)cc1 (stereo not given) | inconclusive: 63.1 µM [inhibitor, partial curve, poor fit] | 
28 | O=C(c1cnccn1)N1CCC2(CCCN(c3ccccc3)C2)CC1 | inconclusive: 35.5 µM [inhibitor, single point] | 
29 | COc1ccc(CCNC(=O)C2CCN(S(=O)(=O)c3c(C)noc3/C=C/c3ccc(C)cc3)CC2)cc1OC | inconclusive: 141 µM [inhibitor, partial curve, poor fit] | 
30 | CSc1nc(C)cc(SC(C(C)=O)C(=O)Nc2ccccc2)n1 (stereo not given) | inconclusive: 44.7 µM [inhibitor, partial curve, poor fit] | 
31 | Cc1ccc(-c2nc3ccccc3s2)cc1NC(=O)c1ccc2c(c1)OCO2 | inconclusive: 0.398 µM [inhibitor, full curve, poor fit] | 
32 | O=C(O)CCN1CC2([N+](=O)[O-])C=CC(=O)C([N+](=O)[O-])(C1)C2CC(=O)c1ccccc1 (stereo not given) | inconclusive: 44.7 µM [inhibitor, partial curve, poor fit] | 
33 | CCC(c1nnnn1C1CCCCC1)N1CCN(C2CCCC2)CC1 (stereo not given) | inconclusive: 35.5 µM [inhibitor, single point] | 
34 | CN1CCN(c2ccc(C(F)(F)F)cc2NC(=O)Nc2ccccc2)CC1 | inconclusive: 44.7 µM [inhibitor, partial curve, poor fit] | 
35 | Cc1ccccc1-c1cc2c(c3c1ccn3C)C1CCC2O1 (stereo not given) | inconclusive: 44.7 µM [inhibitor, partial curve, poor fit] | 
36 | O=C(N[C@@H]1C[C@H](Cn2cc(C3CC3)nn2)[C@@H](O)[C@H]1O)c1cccnc1 | inconclusive: 8.91 µM [inhibitor, partial curve] | 
37 | Cc1ccc(N(C)C(=O)C2CCN(S(=O)(=O)c3c(C)noc3/C=C/c3c(C)cc(C)cc3C)CC2)cc1 | inconclusive: 56.2 µM [inhibitor, partial curve, poor fit] | 
38 | CCOC(=O)c1cc(NC(=O)c2ccoc2C)cc(C(=O)OCC)c1 | inconclusive: 2.24 µM [inhibitor, full curve, poor fit] | 
39 | CCOC(=O)C(NC(=O)C1C2CC3CC(C2)CC1C3)C(=O)OCC (stereo not given) | inconclusive: 100 µM [inhibitor, single point] | 
40 | COc1cccc(OCCSc2nc(C)c(Cc3ccccc3)c(=O)[nH]2)c1 | inconclusive: 79.4 µM [inhibitor, partial curve, poor fit] | 
41 | COCCOC1CCN(C(=O)C2CCC(=O)N(CCc3ccc(OC)cc3)C2)CC1 (stereo not given) | inactive | 
42 | Cc1ccc(Nc2nc(CN3CCN(S(=O)(=O)c4ccc(C)cc4)CC3)cs2)cc1 | inconclusive: 50.1 µM [inhibitor, partial curve, poor fit] | 
43 | O=C(C[C@@H]1CCNC[C@@H]1Cc1cc(CC2CCCCC2)on1)N1CCC(Cc2ccccc2)CC1 | inactive | 
44 | O=C(/C=C/c1cccs1)Nc1ccc(N2CCOCC2)c(S(=O)(=O)Nc2ccccc2Cl)c1 | inactive | 

Row | Structure (SMILES) | Potency | activity change, negative = inhibition
45 | COc1ccc(CN2CC(=O)N(c3ccc(C)c(C)c3)C2=S)cc1OC | inactive | 
46 | CCc1cccc(C)c1NC(=O)CN(C)Cc1ccc(C(F)(F)F)cc1 | inconclusive: 141 µM [inhibitor, partial curve, poor fit] | 
47 | COc1ccc(C(=O)N2CCCC3(C2)NC(=O)N(Cc2cccc(Cl)c2)C3=O)cc1F (stereo not given) | inconclusive: 12.6 µM [inhibitor, partial curve, poor fit] | 
48 | CCOC(=O)c1cccc(NC(=O)CC2C(=O)N(c3ccc(OC)cc3)C(=O)N2C2CCCC2)c1 (stereo not given) | inactive | 
49 | O=C(NC1CCCCC1)C1CCC(Cn2cnnn2)CC1 (stereo not given) | inactive | 
50 | O=C(CSc1nc2ccccc2s1)N/N=C/c1ccco1 | inactive | 
51 | COc1ccc(C(=O)NC(=S)Nc2ccccc2[N+](=O)[O-])cc1OC | inconclusive: 35.5 µM [inhibitor, partial curve, poor fit] | 
52 | COc1cc(CN2CCN(Cc3ccc(C(F)(F)F)cc3)CC2)cc(OC)c1OC | inconclusive: 0.316 µM [inhibitor, full curve, poor fit] | 
53 | Cn1cc(/C=C/C(=O)c2ccccc2)c2ccccc21 | inactive | 
54 | CN(C)c1ccc(CNc2ccccn2)cc1 | inactive | 
55 | COc1ccc2c(c1)c(CN1CCCCCCN(C)C(=O)[C@@H]3CCC[C@@H]31)cn2C | inactive | 
56 | OCCNc1cc(-n2nc(-c3ccccc3)cc2-c2ccccc2)ncn1 |  | inconclusive: -33.7% [inhibitor]
57 | Cn1c(CCN2CCCCC2)nc2cc([N+](=O)[O-])ccc21 | inactive | 
58 | O=C(NCCNC(=O)c1ccccc1O)c1ccccc1O | inactive | 
59 | COc1ccc(S(=O)(=O)N(C)CC(=O)NCC2CCCO2)cc1Cl (stereo not given) | inactive | 
60 | O=C(c1ccc(F)cc1)N(c1ccccc1F)C(CCc1ccccc1)c1nc2ccccc2[nH]1 (stereo not given) | active: 5.01 µM | 
61 | CCOC(=O)c1c(C)c(C(=O)Nc2ccc(C)c(F)c2)c(C)n1C | inactive | 
62 | CC(C)N(Cc1ccccc1)C(=O)CCn1cnc2c1c(=O)n(C)c(=O)n2C | inactive | 
63 | CC(C)c1nn2c(=O)cc(CSCC(=O)Nc3cccc4ccccc34)nc2s1 | inactive | 
64 | CCCCc1c(-c2ccccc2OC)ncn1Cc1ccc(-c2ccccc2)cc1 | inconclusive: 126 µM [inhibitor, single point] | 
65 | CCc1ccc(N2C=C(C(=O)OC)C(c3cccc4ccccc34)C(C#N)=C2N)cc1 (stereo not given) | inconclusive: 39.8 µM [inhibitor, partial curve, poor fit] | 
